Reference: paper PMC5355235, “FLT3 activating mutations display differential sensitivity to multiple tyrosine kinase inhibitors” (Oncotarget, 2017)

Assays:
[1] = test system: BaF3 FLT3 D835G mutant cells; experiment: MTT growth inhibition assay, BaF3 FLT3 D835G cells; type: cell-based; conditions: Mus musculus, no IL-3, 48 h, read-out: Proliferation IC50
Description: (§1) Figure 1 Growth of AL mutants in the presence of FLT3 TKI The BaF3 AL mutants were grown in the absence of IL-3 and analyzed by treatment in increasing concentrations of FLT3 TKI for 48 hours, after which growth inhibition was assessed using the MTT assay. Means are representative of at least three independent experiments.
(§2) The cells were grown in the absence of IL3 and analyzed by treatment in increasing concentrations of FLT3 TKI for 48 hours, after which growth inhibition was assessed using the MTT assay. Each experiment was performed at least three times and representative results are shown.
(§3) Based on Trypan Blue exclusion, 2 × 10^4 viable cells were seeded in quadruplicate in a 96-well microtiter plate in the presence or absence of inhibitor for 48 h. The effect of drug activity on cell viability was measured using the 3-(4,5-Dimethylthiazol-2-yl)-2,5-diphenyltetrazolium bromide (MTT) assay according to the manufacturer's instructions (Roche Applied Science, Indianapolis, IN, USA). Following treatment, cells were incubated for 4 h in MTT followed by dissolution in solubilization buffer overnight. Absorbance was measured at 570 nm on a Bio-Rad plate reader (Hercules, CA, USA). […] Results shown are presented as means and are representative of at least three independent experiments.

[2] = test system: BaF3 FLT3 D835L+K mutant cells; experiment: MTT growth inhibition assay, BaF3 FLT3 D835L+K cells; type: cell-based; conditions: Mus musculus, no IL-3, 48 h, read-out: Proliferation IC50
Description: as §1, §2, §3

BaF3/ITD cells = experiment: MTT growth inhibition assay, BaF3 FLT3-ITD cells; type: cell-based; conditions: Mus musculus, no IL-3, 48 h, read-out: Proliferation IC50
Description: as §1, §2, §3

[3] = test system: BaF3 FLT3 D593D mutant cells; experiment: MTT growth inhibition assay, BaF3 FLT3 D593D cells; type: cell-based; conditions: Mus musculus, no IL-3, 48 h, read-out: Proliferation IC50
Description: as §1, §2, §3

[4] = test system: BaF3 FLT3 I836T mutant cells; experiment: MTT growth inhibition assay, BaF3 FLT3 I836T cells; type: cell-based; conditions: Mus musculus, no IL-3, 48 h, read-out: Proliferation IC50
Description: as §1, §2, §3

[5] = test system: BaF3 FLT3 I836S mutant cells; experiment: MTT growth inhibition assay, BaF3 FLT3 I836S cells; type: cell-based; conditions: Mus musculus, no IL-3, 48 h, read-out: Proliferation IC50
Description: as §1, §2, §3

[6] = test system: BaF3 FLT3 D835A mutant cells; experiment: MTT growth inhibition assay, BaF3 FLT3 D835A cells; type: cell-based; conditions: Mus musculus, no IL-3, 48 h, read-out: Proliferation IC50
Description: as §1, §2, §3

[7] = test system: BaF3 FLT3 I836L+D mutant cells; experiment: MTT growth inhibition assay, BaF3 FLT3 I836L+D cells; type: cell-based; conditions: Mus musculus, no IL-3, 48 h, read-out: Proliferation IC50
Description: as §1, §2, §3

[8] = test system: BaF3 FLT3 D835N mutant cells; experiment: MTT growth inhibition assay, BaF3 FLT3 D835N cells; type: cell-based; conditions: Mus musculus, no IL-3, 48 h, read-out: Proliferation IC50
Description: as §1, §2, §3

all FLT3 AL mutants = conditions: read-out: FLT3 autophosphorylation IC50, BaF3 cells, 1 h treatment, Western blot
Description: Activated FLT3 expression was measured by performing immunoprecipitation, SDS-PAGE and Western blotting as previously described. Specifically, 10^7 cells were washed in medium and treated with inhibitor for 1 h followed by stimulation with 25 ng/ml of FLT3 ligand for 15 minutes where indicated. Cells were washed twice with ice-cold PBS and lysed in 300 µl of NP-40 lysis buffer (150 mM NaCl, 20 mM TrisHCl (pH7.4), 10% glycerol, 1% NP-40, 10 mM EDTA, 100 mM NaF) with 2 mM Na3VO4 and protease inhibitors (Complete Tablets, Roche, Mannheim, Germany) at 4°C for 30 m. Cell lysate was harvested by centrifugation at 13,000 × g for 30 m at 4°C. FLT3 S-18 antibody was incubated with 500 µg lysate overnight at 4°C followed by immunoprecipitation with protein A-agarose beads for 2 h. Beads were washed once in Tris buffered saline with 1% Tween-20 (TBST) and twice in TBS. Samples were boiled in sodium dodecyl sulfate (SDS) sample buffer prior to separating in a 8% SDS-polyacrylamide gel (SDS-PAGE). Proteins were transferred to a polyvinyl diflouride (PVDF) membrane (Millipore, Bedford, MA, USA) and detected by 4G10 phosphotyrosine antibody and anti-FLT3 S-18 antibody. FLT3 was visualized using the Odyssey Infra Red Imaging System from Li-Cor (Lincoln, NE, USA) using AlexaFluor 680 goat anti-mouse and AlexaFluor 800 goat anti-rabbit antibodies. […]

[9] = test system: BaF3 FLT3 D835Y mutant cells; experiment: MTT growth inhibition assay, BaF3 FLT3 D835Y cells; type: cell-based; conditions: Mus musculus, no IL-3, 48 h, read-out: Proliferation IC50
Description: as §1, §2, §3

`CO[C@@H]1[C@H](N(C)C(=O)c2ccccc2)C[C@H]2O[C@]1(C)n1c3ccccc3c3c4c(c5c6ccccc6n2c5c31)C(=O)NC4` [Midostaurin] showed an IC50 [1] of 7.9 nM, an IC50 [2] of 1 nM and an IC50 (BaF3/ITD cells) of 9.3 nM. The IC50 [3] was 2.4 nM, the IC50 [4] was 10 nM and the IC50 [5] was 10.2 nM. For the same compound, the IC50 [6] was 5 nM, the IC50 [7] was 5.2 nM and the IC50 [8] was 8.4 nM. The IC50 (all FLT3 AL mutants) was no more than 5 nM and the IC50 [9] was 10 nM.
